Measurements reported in PubChem BioAssay AID686937 (Drosophila RNAi Screening Center, 2013).

Assay: 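Knock-downs that reduce output of a secreted reporter enzyme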 (primary screen)
System: Drosophila S2 cells expressing secreted horseradish peroxidase
Knock-down reagent: long dsRNA against Drosophila genes
Time to read-out: about 5.5 days (5 days dsRNA, then 12 h reporter induction)
Conditions: reporter expression induced after 5 days of dsRNA, read 12 h later; inducer not stated
Read-out: 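After 5 days of dsRNA and 12 h of reporter induction, medium peroxidase read by chemiluminescence and scored as per-plate z-score; higher values mean more reporter released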
Direction: z-score: higher = more reporter secreted into medium
The screen tested about 23,000 reagents; shown is a random part of those that have a named target and a result. 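Reduced-secretion tags in replicate 1 do not always agree with the z-scores; no criterion for assigning the tags was given.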 The numbers tell different reagents against one gene apart. Further read-outs or replicates are left out here. Reagent sequences are not shown. Not stated in the record: the amount of reagent.

With Fbxl7 (GeneID 41935), how do the results read?
z-score, replicate 1: 0.5

How did the screen score IPIP (GeneID 33849)?
z-score, replicate 1: 0.35

With AGO3 (GeneID 3355150), what was measured?
z-score, replicate 1: 0.31

How did the screen score ArgRS (GeneID 32539)?
z-score, replicate 1: -0.56

Which result is listed for CG3581 (GeneID 42315)?
z-score, replicate 1: 0.28

With Osi4 (GeneID 40758), what does the deposit list?
z-score, replicate 1: 0.18

For Sld5 (GeneID 43166), what was measured?
z-score, replicate 1: 0.42

What did the screen give for CG12483 (GeneID 50161)?
z-score, replicate 1: 0.17

What is on record for CG18327 (GeneID 36567)?
z-score, replicate 1: 0.4

With CG31368 (GeneID 41437) #1, how do the results read?
z-score, replicate 1: 0.21

What did the screen give for CG31368 (GeneID 41437) #2?
z-score, replicate 1: 0.27

For RpS23 (GeneID 36576), what was measured?
z-score, replicate 1: -2.01

With Pkcdelta (GeneID 32191) #1, what was measured?
z-score, replicate 1: -0.14

What did the screen give for Pkcdelta (GeneID 32191) #2?
z-score, replicate 1: 0.1

What is on record for Srrm234 (GeneID 38206) #1?
z-score, replicate 1: -1.28

What is on record for Srrm234 (GeneID 38206) #2?
z-score, replicate 1: 0.32

For phol (GeneID 39095), what does the deposit list?
z-score, replicate 1: -0.13

With CG14325 (GeneID 42123), what does the deposit list?
z-score, replicate 1: 0.39

For Pdh (GeneID 39812), what does the deposit list?
z-score, replicate 1: 0.23

Which result is listed for CG17168 (GeneID 3354996)?
z-score, replicate 1: -3.34

What did the screen give for CG17574 (GeneID 36415)?
z-score, replicate 1: 0.4

Which result is listed for CG31278 (GeneID 41282)?
z-score, replicate 1: 0.14

With Ten-a (GeneID 32183) #1, what does the deposit list?
z-score, replicate 1: 0.52

What is on record for Ten-a (GeneID 32183) #2?
z-score, replicate 1: -2.93

Which result is listed for Ten-a (GeneID 32183) #3?
z-score, replicate 1: 0.36

For Ten-a (GeneID 32183) #4, how do the results read?
z-score, replicate 1: 0.43

What is on record for Ten-a (GeneID 32183) #5?
z-score, replicate 1: 0.32

For Ten-a (GeneID 32183) #6, how do the results read?
z-score, replicate 1: 0.28

Which result is listed for Ten-a (GeneID 32183) #7?
z-score, replicate 1: 0.46

What did the screen give for Ten-a (GeneID 32183) #8?
z-score, replicate 1: 1.01

With CG6678 (GeneID 42581), how do the results read?
z-score, replicate 1: 0.23

How did the screen score l(2)10685 (GeneID 33293)?
z-score, replicate 1: 0.25

Which result is listed for l(3)L1231 (GeneID 41776)?
z-score, replicate 1: 0.16

With Zir (GeneID 33165), what was measured?
z-score, replicate 1: 0.34

For vito (GeneID 326214), what was measured?
z-score, replicate 1: 0.71

What did the screen give for oaf (GeneID 33435)?
z-score, replicate 1: 0.32

With CG14269 (GeneID 31312), what was measured?
z-score, replicate 1: 0.11

What did the screen give for CG12868 (GeneID 36620)?
z-score, replicate 1: 0.27

What is on record for CG30048 (GeneID 246415)?
z-score, replicate 1: -0.21

With tinc (GeneID 42148) #1, what does the deposit list?
z-score, replicate 1: 0.23

For tinc (GeneID 42148) #2, what does the deposit list?
z-score, replicate 1: 0.48

What did the screen give for tinc (GeneID 42148) #3?
z-score, replicate 1: 0.38

What is on record for tinc (GeneID 42148) #4?
z-score, replicate 1: 0.22

For Ror (GeneID 34367), how do the results read?
z-score, replicate 1: -0.01

With CG13842 (GeneID 42685), how do the results read?
z-score, replicate 1: 0.38

Which result is listed for CheA87a (GeneID 41642)?
z-score, replicate 1: 0.3

How did the screen score CG8136 (GeneID 41037)?
z-score, replicate 1: 0.27

What is on record for CG10195 (GeneID 35228)?
z-score, replicate 1: 0.22

Which result is listed for CG18343 (GeneID 36297)?
z-score, replicate 1: 0.27

What did the screen give for CG30054 (GeneID 246420)?
z-score, replicate 1: 0.21

How did the screen score stops (GeneID 43683) #1?
z-score, replicate 1: 0.1

How did the screen score stops (GeneID 43683) #2?
z-score, replicate 1: 0.09

With stops (GeneID 43683) #3, what does the deposit list?
z-score, replicate 1: 0.25

Reformatted: entries from further up
gene knocked down,dsRNA no.,"z-score, replicate 1"
l(3)L1231 (GeneID 41776),1,0.16
Zir (GeneID 33165),1,0.34
vito (GeneID 326214),1,0.71
oaf (GeneID 33435),1,0.32
